PubChem BioAssay AID504793, Drosophila RNAi Screening Center – 2011

Aim: 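Knock-downs allowing continued mitosis even though DNA is damaged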 (primary screen)
Cell system: Drosophila S2R+ cells
Reagents: long dsRNA against Drosophila genes, about 0.25 µg dsRNA per well
Timing: 4 days of dsRNA, then 4 hours of drug before read-out
Challenge: doxorubicin 0.5 µM for 4 hours to cause double-strand breaks, in cells also given a low, harmless dose of dsRNA against nbs to sensitise the assay
Detection: 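Per-well count of mitotic cells stained for phospho-histone H3 after doxorubicin exposure, used as mitotic index; counts are raw and not normalised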
Reading the numbers: mitotic cells: higher = more cells in mitosis, weaker G2 arrest
Rule for the call: 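a call needs confirmation in secondary tests, with other dsRNAs and a check of mitotic timing without damage, not just a high primary count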
Calls: active = confirmed in follow-up tests; inactive = not confirmed
The deposit covers about 23,000 reagents; below is a random part of those with a known target gene and a result. Over the whole deposit, 62 (0.27%) are marked active. 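Calls come from follow-up tests whose scores are not deposited, so confirmed genes may have low counts here; counts are not normalised per plate.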 Raw values vary from plate to plate and are shown uncorrected. Names joined by + are all predicted targets of the reagent.

| target | dsRNA | mitotic cells, replicate 1 | Call |
| --- | --- | --- | --- |
| beat-IIIa (beaten path IIIa) | DRSC01577 | 6 | inactive |
| beat-IIIa (beaten path IIIa) | DRSC02178 | 2 | inactive |
| Itgbn (Integrin betanu subunit) | DRSC03493 | 2 | inactive |
| mub (mushroom-body expressed) | DRSC11896 | 6 | inactive |
| mub (mushroom-body expressed) | DRSC29738 | 43 | inactive |
| E(spl)m6-BFM (Enhancer of split m6, Bearded family member) | DRSC16993 | 7 | inactive |
| Drep2 (DNA fragmentation factor-related protein 2) | DRSC07528 | 12 | inactive |
| Drep2 (DNA fragmentation factor-related protein 2) | DRSC25612 | 2 | inactive |
| CG14610 + asRNA:CR42738 | DRSC12554 | 2 | inactive |
| CG13532 | DRSC04174 | 5 | inactive |
| Nepl21 (Neprilysin-like 21) | DRSC14133 | 3 | inactive |
| CG7546 | DRSC08885 | 9 | inactive |
| CG7546 | DRSC10871 | 12 | inactive |
| CG7546 | DRSC22148 | 8 | inactive |
| Rrp1 (Recombination repair protein 1) | DRSC00784 | 10 | inactive |
| Rrp1 (Recombination repair protein 1) | DRSC26575 | 7 | inactive |
| His4r (Histone H4 replacement) | DRSC16703 | 11 | inactive |
| His4r (Histone H4 replacement) | DRSC27569 | 5 | inactive |
| CG12147 | DRSC12192 | 3 | inactive |
| CG12147 | DRSC30029 | 10 | inactive |
| CG14502 | DRSC06473 | 2 | inactive |
| CG14907 + Mettl4 | DRSC15026 | 4 | inactive |
| CG14907 + Mettl4 | DRSC15027 | 9 | inactive |
| I-3 (Inhibitor-3) | DRSC20479 | 5 | inactive |
| CG32333 | DRSC08627 | 6 | inactive |
| CG32333 | DRSC08629 | 4 | inactive |
| Eig71Eb (Ecdysone-induced gene 71Eb) | DRSC11149 | 5 | inactive |
| Karl | DRSC19883 | 7 | inactive |
| Targ (Tarag) | DRSC06206 | 11 | inactive |
| snf (sans fille) | DRSC18835 | 6 | inactive |
| snf (sans fille) | DRSC27854 | 5 | inactive |
| CG18659 | DRSC06784 | 11 | inactive |
| Ssl (Suppressor of Stellate-like) | DRSC04657 | 5 | inactive |
| Ssl (Suppressor of Stellate-like) | DRSC26276 | 6 | inactive |
| Coq8 (Coenzyme Q8) | DRSC19900 | 17 | inactive |
| Ass (Argininosuccinate synthase) | DRSC28238 | 6 | inactive |
| hfw (halfway) | DRSC18506 | 10 | inactive |
| hfw (halfway) | DRSC25958 | 11 | inactive |
| Dtg (Dpp target gene) | DRSC15998 | 10 | inactive |
| Dtg (Dpp target gene) | DRSC26947 | 7 | inactive |
| Aldh7A1 (Aldehyde dehydrogenase 7 family member A1) | DRSC11083 | 7 | inactive |
| CG33483 | DRSC14019 | 7 | inactive |
| bbg (big bang) | DRSC11077 | 7 | inactive |
| bbg (big bang) | DRSC11079 | 5 | inactive |
| bbg (big bang) | DRSC25910 | 9 | inactive |
| bbg (big bang) | DRSC27292 | 4 | inactive |
| Cpr78Cb (Cuticular protein 78Cb) | DRSC11847 | 5 | inactive |
| Cpr78Cb (Cuticular protein 78Cb) | DRSC26957 | 3 | inactive |
| CR15280 (pseudo) | DRSC01953 | 7 | inactive |
| CR15280 (pseudo) | DRSC24110 | 11 | inactive |
| CG4558 | DRSC18369 | 10 | inactive |
| fj (four-jointed) | DRSC07619 | 8 | inactive |
| fj (four-jointed) | DRSC27535 | 4 | inactive |
| lmgA + lmgB | DRSC03566 | 4 | inactive |
| lmgA + lmgB | DRSC24454 | 9 | inactive |
| Cyp6t3 (Cytochrome P450 6t3) | DRSC07388 | 5 | inactive |

A portion of the results above:
| target | dsRNA | mitotic cells, replicate 1 | Call |
| --- | --- | --- | --- |
| mub (mushroom-body expressed) | DRSC29738 | 43 | inactive |
| E(spl)m6-BFM (Enhancer of split m6, Bearded family member) | DRSC16993 | 7 | inactive |
| Drep2 (DNA fragmentation factor-related protein 2) | DRSC07528 | 12 | inactive |
| Drep2 (DNA fragmentation factor-related protein 2) | DRSC25612 | 2 | inactive |
| CG14610 + asRNA:CR42738 | DRSC12554 | 2 | inactive |
| CG13532 | DRSC04174 | 5 | inactive |
| Nepl21 (Neprilysin-like 21) | DRSC14133 | 3 | inactive |
| CG7546 | DRSC08885 | 9 | inactive |
| CG7546 | DRSC10871 | 12 | inactive |
| CG7546 | DRSC22148 | 8 | inactive |
| Rrp1 (Recombination repair protein 1) | DRSC00784 | 10 | inactive |
| Rrp1 (Recombination repair protein 1) | DRSC26575 | 7 | inactive |
| His4r (Histone H4 replacement) | DRSC16703 | 11 | inactive |

Additional results follow.
| target | dsRNA | mitotic cells, replicate 1 | Call |
| --- | --- | --- | --- |
| betaNACtes1 (Nascent-associated complex beta-subunit-like, testis 1) | DRSC19534 | 11 | inactive |
| betaNACtes1 (Nascent-associated complex beta-subunit-like, testis 1) | DRSC26176 | 5 | inactive |
| Rac2 | DRSC11262 | 5 | inactive |
| Rac2 | DRSC25086 | 9 | inactive |
| SPH93 (Serine protease homolog 93) | DRSC02978 | 3 | inactive |
| Actn3 (alpha actinin 3) | DRSC14106 | 6 | inactive |
| CG11865 | DRSC01872 | 4 | inactive |
| CG11865 | DRSC28173 | 1 | inactive |
| CG11178 | DRSC19396 | 10 | inactive |
| CG31230 | DRSC22130 | 4 | inactive |
| CG31230 | DRSC26678 | 9 | inactive |
| Cen (Centrocortin) | DRSC02704 | 7 | inactive |
| Mov10 (Mov10 RISC complex RNA helicase) | DRSC07012 | 9 | inactive |
| CG13312 | DRSC09983 | 5 | inactive |
| CG13312 | DRSC26729 | 9 | inactive |
| CG4286 | DRSC04459 | 13 | inactive |
| CG4286 | DRSC24458 | 6 | inactive |
| Elba3 (Early boundary activity 3) | DRSC00469 | 3 | inactive |
| CG12609 | DRSC19473 | 4 | inactive |
| Bulli | DRSC10974 | 8 | inactive |
| Cds (CDP-diacylglycerol synthase) | DRSC10938 | 5 | inactive |
| CG13319 | DRSC06356 | 5 | inactive |
| blanks | DRSC09757 | 6 | inactive |
| CG13367 | DRSC18485 | 6 | inactive |
| CG13367 | DRSC18486 | 13 | inactive |
| Mec2 | DRSC20054 | 8 | inactive |
| Mec2 | DRSC26162 | 9 | inactive |
| Obp56c (Odorant-binding protein 56c) | DRSC06552 | 14 | inactive |
| Obp56c (Odorant-binding protein 56c) | DRSC22325 | 6 | inactive |
| Obp56c (Odorant-binding protein 56c) | DRSC28276 | 6 | inactive |
| Brd8 (Bromodomain containing 8) | DRSC14866 | 7 | inactive |
| Brd8 (Bromodomain containing 8) | DRSC28811 | 4 | inactive |
| inaF-A | DRSC19660 | 12 | inactive |
| Cyp4p3 (Cytochrome P450 4p3) | DRSC07374 | 9 | inactive |
| Cyp4p3 (Cytochrome P450 4p3) | DRSC26733 | 10 | inactive |
| DopEcR (Dopamine/Ecdysteroid receptor) | DRSC08529 | 2 | inactive |
| Nuf2 | DRSC03123 | 13 | inactive |
| CoRest | DRSC19881 | 7 | inactive |
| CoRest | DRSC21626 | 12 | inactive |
| CoRest | DRSC22305 | 8 | inactive |
| CoRest | DRSC25141 | 5 | inactive |
| CG11180 | DRSC06055 | 2 | inactive |
| CG11180 | DRSC28153 | 3 | inactive |
| CG31496 | DRSC12547 | 5 | inactive |
| CG31496 | DRSC27899 | 6 | inactive |
| Mfap1 (Microfibril-associated protein 1) | DRSC08154 | 2 | inactive |
| Mfap1 (Microfibril-associated protein 1) | DRSC29205 | 3 | inactive |
| tst + CG10375 | DRSC14237 | 11 | inactive |
| PAPLA1 (Phosphatidic Acid Phospholipase A1) | DRSC03095 | 2 | inactive |
| PAPLA1 (Phosphatidic Acid Phospholipase A1) | DRSC03096 | 7 | inactive |
| CG11134 | DRSC19384 | 11 | inactive |
| CG7632 | DRSC11842 | 8 | inactive |
| CG14915 | DRSC02399 | 3 | inactive |
| CG14915 | DRSC26295 | 9 | inactive |
